# Measurements taken from publication PMC8398878 (Pharmaceutics, 2021).
# Test: general procedure: Fmoc solid-phase peptide synthesis; Rink amide-MBHA resin (loading: 0.83 mol/g) for PNA5; 2-Cl-trityl resin (loading: 1.43 mol/g) for Ang (1—7); HBTU/NMM in DMF; ClHOBt/DIC in NMP for Fmoc-Ser glucoside
# Details: whole synthesis, 280 nm
substance,measurement,value
Asp-Arg-Val-Tyr-Ile-His-Pro,final HPLC purity,more than 98.5%
H-DRVYIHS(βGlc)-NH2 (SMILES CC[C@H](C)[C@H](NC(=O)[C@H](Cc1ccc(O)cc1)NC(=O)[C@@H](NC(=O)[C@H](CCCNC(=N)N)NC(=O)[C@@H](N)CC(=O)O)C(C)C)C(=O)N[C@@H](Cc1c[nH]cn1)C(=O)N[C@@H](CO[C@@H]1O[C@H](CO)[C@@H](O)[C@H](O)[C@H]1O)C(N)=O),final HPLC purity,more than 98.5%

# * marks the point of attachment. βGlc = OC[C@H]1O[C@@H](*)[C@H](O)[C@@H](O)[C@@H]1O
